# Results: the supplement of paper PMC4683952
# The other results are listed elsewhere or left out. How the calls were made is not given here. This data set is noisy: repeats of one test often differ as much as different tests do.
# System: Lgr5 (MarsCy1-Lgr5-EGFP, U2OS)
# Assay: cell-surface Lgr5 expression (SCi1 fluorescence, background-subtracted) relative to WT DMSO (fold of DMSO control); higher = more Lgr5 at the plasma membrane
# Settings: U2OS MarsCy1-Lgr5-EGFP stable; treatment time: overnight; library: Kinase Gold; 20 µM
# Procedure: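 U2OS cells stably expressing MarsCy1-Lgr5-EGFP in 384-well plates were incubated overnight with single-dose compounds. Cell-surface Lgr5 was stained with SCi1 and scanned at 700 nm on a LI-COR Odyssey. Intensity was background-subtracted (parental U2OS) and expressed relative to WT DMSO wells.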
row,Structure (SMILES),cell-surface Lgr5 expression
1,O=C(Nc1ccc2nc3[nH]c(=O)[nH]c(=O)c3nc2c1)c1ccccc1,inactive: 0.662
2,O=C(NCCc1ccc(F)cc1)C(=O)NCc1ccco1,inactive: 0.772
3,C/C(=C\C(=O)c1cccnc1)NNC(=O)c1ccc(C)cc1,inactive: 0.713
4,CCC(=O)Nc1sc(C(=O)Nc2ccccc2)c(C)c1C(=O)OC,inactive: 1.16
5,COC(=O)c1ccc(NC(=S)NC(=O)c2cccnc2)cc1,inactive: 0.619
6,N#Cc1ccc(C(=O)NNC(=O)c2ccncc2)cc1,inactive: 0.875
7,O=C(/C=C/c1cccs1)NC(=S)NNC(=O)c1ccccc1O,inactive: 0.449
8,COc1cc(OC)cc(C(=O)NNC(=O)c2ccco2)c1,inactive: 0.837
9,O=C(Nc1cccc(NC(=O)c2ccco2)c1)c1ccc(F)cc1,inactive: 0.712
10,NC(=O)C[n+]1cccc(C(=O)Nc2ccccc2)c1,inactive: 0.947
11,O=C(Cc1cccs1)NNC(=S)NC(=O)c1ccco1,inactive: 0.676
12,CC(NC(=O)C(=O)NCC1CCNCC1)c1ccccc1 (stereo not given),inactive: 0.94
13,COC(=O)c1ccc(Nc2cc(=O)[nH]c(=O)[nH]2)cc1,inactive: 0.824
14,NC(=S)NNC(=O)CCn1c2ccccc2c2ccccc21,inactive: 0.496
15,COc1ccc(C(=O)NC(=S)Nc2cccnc2)cc1OC,inactive: 0.93
16,Cc1nc(C(=O)NN)cc2c1[nH]c1ccccc12,inactive: 0.547
17,CSc1ccc(/C=C(\C#N)c2nc3ccccc3[nH]2)cc1,inactive: 0.689
18,O=C(NCc1ccccn1)/C(=C/c1ccco1)NC(=O)c1ccccc1,inactive: 0.935
19,Cc1ccc2cccc(NC(=S)NC(=O)c3cccnc3)c2n1,inactive: 0.692
20,O=C(CC(=O)c1ccccc1)Nc1ccccn1,inactive: 0.899

row,Structure (SMILES),cell-surface Lgr5 expression
1,COC(=O)c1c(N)sc(C(=O)Nc2cccc(Cl)c2C)c1C,inactive: 0.946
2,NC(=O)c1ccc[n+](CCC[n+]2cccc(C(N)=O)c2)c1,inactive: 0.786
3,COc1ccc(C(=O)/C=C/c2c[nH]c3ccccc23)cc1,inactive: 0.557
4,O=C(NNC(=O)c1ccncc1)Nc1ccccc1,inactive: 0.777
5,Cc1cccc(Nc2nc(OCC#N)nc(N(C)C)n2)c1,inactive: 0.833
6,O=C(/C=C/c1ccco1)Nc1c[nH]c(=O)[nH]c1=O,inactive: 0.867
7,COc1ccc(OCC(=O)NNC(=O)c2ccco2)cc1,inactive: 0.88
8,O=C(Nc1nc2ccccc2n1CCN1CCCCC1)c1ccco1,inactive: 0.993
9,CC(=O)NNC(=O)c1c(O)c2ccccc2n(C)c1=O,inactive: 0.786
10,COc1ccccc1NC(=O)Nc1cc(C)ccn1,inactive: 0.636
11,O=C(Cc1cccs1)NNC(=S)NC(=O)c1cccnc1,inactive: 0.694
12,NNC(=O)CSc1ncnc2nc[nH]c12,inactive: 1.2
13,Cc1nn(-c2ccccc2)c2sc(C(=O)NN)cc12,inactive: 0.548
14,O=C(CSc1nc2ccccc2[nH]1)NNC(=O)Cc1ccccc1,inactive: 0.907
15,O=C1N=C(N2CCOCC2)S/C1=C1\C(=O)Nc2ccccc21,inactive: 0.885
16,O=C(Nc1ccccc1O)c1ccccn1,inactive: 0.786
17,CC(=O)NNc1cc(C)nc(NS(=O)(=O)c2ccc(C)cc2)n1,inactive: 0.944
18,O=C(O)c1cccc2c1NC(c1cccc([N+](=O)[O-])c1)C1CC=CC21 (stereo not given),inactive: 0.716
19,Cc1c2cc(O)c(=O)cc-2oc2cc(O)c(O)cc12,inactive: 0.807
20,O=C(NC(=S)NNC(=O)c1ccccc1O)c1cccnc1,inactive: 0.724

# A stretch from further up, for reference:
row,Structure (SMILES),cell-surface Lgr5 expression
13,Cc1nn(-c2ccccc2)c2sc(C(=O)NN)cc12,inactive: 0.548
14,O=C(CSc1nc2ccccc2[nH]1)NNC(=O)Cc1ccccc1,inactive: 0.907
